Reference: paper doi:10.1101/2021.07.27.454094
These are yes or no findings as the source states them, for the method shown. In cells and extracts the contact can be indirect. Some entries that bind do so weakly or less than the wild type. Where a sequence is shown, tags or fusion partners need not be part of it.

Biological target: T1, Gds1-TAP (S. cerevisiae) (UniProt P41913)
T1 sequence: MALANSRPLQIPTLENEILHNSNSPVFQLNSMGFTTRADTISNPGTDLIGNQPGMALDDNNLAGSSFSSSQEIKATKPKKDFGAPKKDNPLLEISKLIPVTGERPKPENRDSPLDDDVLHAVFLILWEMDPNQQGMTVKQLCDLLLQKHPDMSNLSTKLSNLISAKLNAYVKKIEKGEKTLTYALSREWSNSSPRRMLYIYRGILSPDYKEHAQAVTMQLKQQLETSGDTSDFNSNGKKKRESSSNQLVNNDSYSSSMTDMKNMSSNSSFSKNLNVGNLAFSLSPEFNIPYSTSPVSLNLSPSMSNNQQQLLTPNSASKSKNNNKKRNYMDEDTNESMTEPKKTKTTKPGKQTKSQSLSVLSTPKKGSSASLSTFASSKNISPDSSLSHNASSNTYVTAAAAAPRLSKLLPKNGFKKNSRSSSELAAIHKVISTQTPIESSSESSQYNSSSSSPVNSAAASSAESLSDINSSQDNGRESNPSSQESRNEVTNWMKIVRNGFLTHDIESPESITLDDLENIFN
Assay: co-IP

- binding: binds
B1: Esa1, catalytic subunit of the NuA4 histone H4 acetyltransferase complex (protein, UniProt Q08649 1-445)
chain: MSHDGKEEPGIAKKINSVDDIIIKCQCWVQKNDEERLAEILSINTRKAPPKFYVHYVNYNKRLDEWITTDRINLDKEVLYPKLKATDEDNKKQKKKKATNTSETPQDSLQDGVDGFSRENTDVMDLDNLNVQGIKDENISHEDEIKKLRTSGSMTQNPHEVARVRNLNRIIMGKYEIEPWYFSPYPIELTDEDFIYIDDFTLQYFGSKKQYERYRKKCTLRHPPGNEIYRDDYVSFFEIDGRKQRTWCRNLCLLSKLFLDHKTLYYDVDPFLFYCMTRRDELGHHLVGYFSKEKESADGYNVACILTLPQYQRMGYGKLLIEFSYELSKKENKVGSPEKPLSDLGLLSYRAYWSDTLITLLVEHQKEITIDEISSMTSMTTTDILHTAKTLNILRYYKGQHIIFLNEDILDRYNRLKAKKRRTIDPNRLIWKPPVFTASQLRFAW
